We go through 40 molecules from the supplement of paper PMC12873370.

Molecules are shown by their SMILES. Where “and” joins values, the source holds several entries; their conditions need not be identical. Identical values can stand only once. The list shows a part of the results. Repeats are few or missing, and single values can be far off.

Test [1] has as its system MEPP (mouse ovarian epithelium Trp53/Pten KO). Kind of test: cell viability relative to untreated (fraction); higher = less growth inhibition. Conditions: 5 µM; 3 days.
The test system of test [2] is PREPP (mouse prostate epithelium Trp53/Pten KO). Described as above. As to conditions: 5 µM; 3 days.

Turning to `CC(=O)OC(C)(C)/C=C/C(=O)[C@](C)(O)[C@H]1[C@H](O)C[C@@]2(C)[C@@H]3CC=C4[C@@H](C[C@H](O)C(=O)C4(C)C)[C@]3(CO)C(=O)C[C@]12C`, the cell viability was determined as 0.868 in test [1] and 0.941 in test [2].

With `CC(C)=CCC[C@]1(C)C=Cc2c(O)c3c(c(CC=C(C)C)c2O1)O[C@]12C(=C[C@@H]4C[C@H]1C(C)(C)O[C@@]2(C/C=C(/C)C(=O)O)C4=O)C3=O`, the cell viability in test [1] was found to be 0.37; in test [2], 0.178.

Consider `CC(=O)OC(C)(C)/C=C/C(=O)[C@](C)(O)[C@H]1[C@H](O)C[C@@]2(C)[C@@H]3CC=C4[C@H](C[C@H](O)C(=O)C4(C)C)[C@]3(C)C(=O)C[C@]12C`, for which the cell viability in test [1] was 0.912 and 0.651; in test [2], 0.902 and 0.614.

With `COc1ccc2[nH]cc(CCN)c2c1`, the cell viability was found to be 1.11 in test [1] and 0.815 in test [2].

Consider `CN1CCc2cc3c(cc2C1C1OC(=O)c2c1ccc1c2OCO1)OCO3` (stereo not given), for which the cell viability in test [1] is 0.962; in test [2], 0.929.

As to `CC=Cc1cc(OC)c(OC)cc1OC`, the values for the cell viability in test [1] and in test [2] were 0.906 and 0.875, respectively.

Regarding `COc1ccc(C=O)cc1O`, the cell viability is 0.823 in test [1] and 0.939 in test [2].

Turning to `C[C@H]1CCC/C=C/[C@@H]2C[C@H](O)C[C@H]2[C@H](O)/C=C/C(=O)O1`, the values for the cell viability in test [1] and in test [2] were 0.472 and 0.477, respectively.

Take `O=C(O)CC[N+](=O)[O-]`: the cell viability amounted to 1.1 in test [1] and 0.904 in test [2].

As to `O=C1CCCN1`, the cell viability worked out at 0.837 in test [1] and 0.931 in test [2].

As for `CC[C@H]1CN2CC[C@]3(C(=O)Nc4ccccc43)[C@@H]2C[C@@H]1/C(=C\OC)C(=O)OC`, the values for the cell viability in test [1] and in test [2] were 0.972 and 1.19, respectively.

As for `CNC1CC(N)C(O)C(OC2OC(CO)C(O)C3OC4(OC(C(N)CO)C(O)C(O)C4O)OC23)C1O` (stereo not given), the cell viability in test [1] came out at 1.15; in test [2], 0.888.

With `COC(=O)[C@]1(C)CC[C@]2(C)CC[C@]3(C)C4=CC=C5C(=CC(=O)C(O)=C5C)[C@]4(C)CC[C@@]3(C)[C@@H]2C1`, the cell viability was 0.46 in test [1] and 0.717 in test [2].

Turning to `CC(=O)NC1CCSC1=O` (stereo not given), the values for the cell viability in test [1] and in test [2] were 0.87 and 0.925, respectively.

Take `COC(=O)C1=CCCN(C)C1`: the cell viability turned out to be 0.753 in test [1] and 0.913 in test [2].

On to `C[C@]12CC[C@H](O)C[C@@H]1CC[C@@H]1[C@@H]2CC[C@]2(C)C(=O)CC[C@@H]12`, for which the cell viability was found to be 0.921 in test [1] and 0.877 in test [2].

Take `NC(=O)Cc1ccccc1`: the results for the cell viability in test [1] and in test [2] were 0.973 and 0.972, respectively.

As for `CCN1C[C@]2(COC)CC[C@H](OC)[C@]34C1[C@H]([C@H](OC)[C@H]23)[C@@]1(OC(C)=O)C[C@H](OC)[C@@]2(O)C[C@@H]4[C@@H]1[C@H]2OC(=O)c1ccc(OC)cc1`, the cell viability in test [1] was found to be 1.06; in test [2], 0.986.

As to `O=C(O)c1ccc(=O)[nH]c1`, the cell viability worked out at 0.994 in test [1] and 0.905 in test [2].

Turning to `C#C[C@]1(O)CC[C@H]2[C@@H]3CCC4=CC(=O)CC[C@]4(C)[C@H]3CC[C@@]21C`, the cell viability in test [1] came out at 0.95; in test [2], 0.907.

On to `c1cc2c(cc1[C@H]1OC[C@H]3[C@@H]1CO[C@@H]3c1ccc3c(c1)OCO3)OCO2`, for which the cell viability in test [1] came to 1.72; in test [2], 0.946.

On to `O=C/C=C/c1ccccc1`, for which the cell viability in test [1] was 1.3 and 1.56; in test [2] it was 0.978 and 0.994.

In the case of `C[C@H]1C(=O)O[C@@H]2CCN3CC=C(COC(=O)[C@](C)(O)[C@]1(C)O)[C@H]23`, the cell viability was determined as 1.37 in test [1] and 0.991 in test [2].

Take `COc1ccc(C(=O)O)cc1OC`: the values for the cell viability in test [1] and in test [2] were 0.844 and 1.01, respectively.

With `CCCCCc1cc(O)cc(O)c1`, the values for the cell viability in test [1] and in test [2] were 0.914 and 1.29, respectively.

Turning to `C=C[C@@H]1C2=CCOC(=O)C2=CO[C@H]1O[C@@H]1O[C@H](CO)[C@@H](O)[C@H](O)[C@H]1O`, the values for the cell viability in test [1] and in test [2] were 1.1 and 1.11, respectively.

Consider `CC(C)=CCOc1c2occc2cc2ccc(=O)oc12`, for which the cell viability in test [1] came out at 1.07; in test [2] it was 1.24.

Regarding `CN[C@H]1[C@H](O)[C@H](O[C@@H]2[C@@H](O)[C@H](O[C@H]3O[C@H](C(C)O)[C@@H](O)[C@H](O)[C@H]3N)[C@@H](N)C[C@H]2N)OC[C@@]1(C)O` (stereo not given in full), the cell viability was found to be 1.25 in test [1] and 0.885 in test [2].

In the case of `CC1=C(C(=O)Nc2ccccc2)SCCO1`, the cell viability in test [1] is 0.909; in test [2], 1.04.

Take `O=[N+]([O-])c1ncc[nH]1`: the cell viability was 0.787 in test [1] and 0.867 in test [2].

Regarding `NCCc1ccccc1`, the cell viability in test [1] came to 0.867; in test [2], 0.934.

Turning to `C[C@@H]1CC[C@H]2[C@@H](C)C(=O)O[C@@H]3O[C@@]4(C)CC[C@@H]1[C@]32OO4`, the cell viability is 1.24 in test [1] and 1.31 in test [2].

Take `c1csc(-c2ccc(-c3cccs3)s2)c1`: the figures for the cell viability in test [1] and in test [2] were 0.9 and 0.951, respectively.

As for `C=C[C@H]1[C@H](O[C@@H]2O[C@H](CO)[C@@H](O)[C@H](O)[C@H]2O)OC=C2C(=O)OCC[C@H]21`, the cell viability in test [1] turned out to be 1.29; in test [2] it was 1.

For `C=C1CC[C@H]2[C@@H](/C=C(\C)C(=O)[C@@]3(OC(C)=O)C[C@H](C)[C@H](OC(=O)c4ccccc4)[C@@H]3[C@H]1OC(C)=O)C2(C)C`, the values for the cell viability in test [1] and in test [2] were 1.29 and 1.13, respectively.

As for `NCC(O)c1ccccc1` (stereo not given), the cell viability in test [1] was found to be 0.787; in test [2] it was 1.08.

Consider `O=C(Nc1ccccc1)Nc1ccnc(Cl)c1`, for which the results for the cell viability in test [1] and in test [2] were 1.23 and 0.916, respectively.

As to `CO[C@]12C[C@@H](COC(=O)c3cncc(Br)c3)CN(C)[C@@H]1Cc1cn(C)c3cccc2c13`, the cell viability in test [1] amounted to 0.775; in test [2], 0.963.

As for `NNC(=O)c1ccc(N)cc1`, the cell viability is 1.03 in test [1] and 0.917 in test [2].

Take `Nc1nc(N)nc(NC2CC2)n1`: the cell viability amounted to 0.783 in test [1] and 0.895 in test [2].
